This data set concerns TFIP11 GCFC-domain deletion mutant. Put plainly: EMSA. Conditions: 7.5-30 nM protein, 0.5 nM DNA; EMSA: 10 mM MgCl2, 2.5% glycerol, 0.05% NP-40, 0.5 nM biotin-DNA, 20 min, room temperature (Pierce LightShift kit); recombinant protein; protein details: His-SUMO (N-terminal); label: 5'-biotin on oligo 1. Background: A gel shift assay detects complexes by their altered migration in electrophoresis.

Results on 1 sequence are retold here after PMC10858868, “TFIP11 promotes replication fork reversal to preserve genome stability”.

Construct, isoform or probe ends are uncertain for at least one entry. Negatives hold for the conditions tested.

Take “GACGCTGCCGAATTCTACCAGTGCCTTGCTAGGACATCTTTGCCCACCTGCAGGTTCAC / ATAGTCGGATCCTCTAGACAGCTCCATGTAGCAAGGCACTGGTAGAATTCGGCAGCGTC [splayed arm (oligo 1 + oligo 3)]”: the binding result is listed as “no binding”.
